Reference: paper PMC3808318, “A type III ACC synthase, ACS7, is involved in root gravitropism in Arabidopsis thaliana” (Journal of Experimental Botany, 2013)
Positions count from the first letter of the chain named. Results are given in words; binding and its absence hold for the method and conditions named. Binding seen in cells or lysates may run through a third protein. Some binding calls cover weakened binding; strength is not graded here. For some of these results: Sequences can lack the tags named with a protein. Blank lines part the entries; values can stand above or below the molecule they belong to.

Experiments:
Test in all cases: split reporter; BiFC in Arabidopsis protoplasts, PEG transformation with YFP-N and YFP-C plasmids (35S promoter), YFP seen by confocal microscopy after 12-16 h
[1] = molecular target: AtACS7 (type III ACC synthase ACS7) fused to a YFP half for BiFC (Arabidopsis thaliana) (UniProt Q9STR4)
[2] = molecular target: T1, 14-3-3ω fused to a YFP half for BiFC (Arabidopsis) (UniProt Q01525)
T1 sequence: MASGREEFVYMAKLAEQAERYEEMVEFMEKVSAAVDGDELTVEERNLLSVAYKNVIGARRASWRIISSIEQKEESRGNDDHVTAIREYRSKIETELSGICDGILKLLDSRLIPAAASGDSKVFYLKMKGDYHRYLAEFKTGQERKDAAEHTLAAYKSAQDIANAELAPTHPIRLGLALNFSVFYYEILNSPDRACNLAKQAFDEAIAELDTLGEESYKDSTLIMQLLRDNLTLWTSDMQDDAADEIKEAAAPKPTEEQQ

[3] = molecular target: AtACS7 with Ser216 mutated to alanine, fused to a YFP half for BiFC (Arabidopsis thaliana) (UniProt Q9STR4)
[4] = molecular target: AtACS7 with Thr296 and Ser299 both mutated to alanine, fused to a YFP half for BiFC (Arabidopsis thaliana) (UniProt Q9STR4)

binding [1]: binds
binding [2]: binds
Molecule: AtACS7 (type III ACC synthase ACS7) fused to a YFP half for BiFC (from UniProt Q9STR4 1-447) (enzyme)

binding [3]: binds
B1: AtACS7 with Ser216 mutated to alanine, fused to a YFP half for BiFC (enzyme, UniProt Q9STR4 1-447)
chain: MGLPLMMERSSNNNNVELSRVAVSDTHGEDSPYFAGWKAYDENPYDESHNPSGVIQMGLAENQVSFDLLETYLEKKNPEGSMWGSKGAPGFRENALFQDYHGLKTFRQAMASFMEQIRGGKARFDPDRIVLTAGATAANELLTFILADPNDALLVPTPYYPGFDRDLRWRTGVKIVPIHCDSSNHFQITPEALESAYQTARDANIRVRGVLITNPANPLGATVQKKVLEDLLDFCVRKNIHLVSDEIYSGSVFHASEFTSVAEIVENIDDVSVKERVHIVYSLSKDLGLPGFRVGTIYSYNDNVVRTARRMSSFTLVSSQTQHMLASMLSDEEFTEKYIRINRERLRRRYDTIVEGLKKAGIECLKGNAGLFCWMNLGFLLEKKTKDGELQLWDVILKELNLNISPGSSCHCSEVGWFRVCFANMSENTLEIALKRIHEFMDRRRRF

binding [4]: binds
B2: AtACS7 with Thr296 and Ser299 both mutated to alanine, fused to a YFP half for BiFC (enzyme, UniProt Q9STR4 1-447)
chain: B1 chain with A216S, T296A, S299A
